The values that follow come from US20170189504A1, “NOVEL PEPTIDES AND COMBINATION OF PEPTIDES FOR USE IN IMMUNOTHERAPY AGAINST VARIOUS CANCERS” (immatics biotechnologies GmbH, priority 2015, published 2017).

The test system of the data set is HLA-A*02. Kind of data set: Identification and relative LC-MS quantitation of HLA-A*02-presented tumor-associated peptides on tissue samples (presentation profiles, Tables 13A, 13B, 15, FIG. 1). To be noted: for Presentation score GB: glioblastoma (N = 41) vs panel of normal tissues (N = 262); for Presentation score NSCLC: non-small cell lung cancer (N = 90) vs panel of normal tissues (N = 262); for Presentation score OC: ovarian cancer (N = 20) vs panel of normal tissues (N = 262); for Peptide Presentation on cancer entities: HLA-A*02-binding tumor-associated peptides; for Presentation score NHL: non-Hodgkin lymphoma (N = 18) vs panel of normal tissues (N = 262); for Presentation score UBC: urinary bladder cancer (N = 16) vs panel of normal tissues (N = 262); for Presentation score AML: acute myeloid leukemia (N = 18) vs panel of normal tissues (N = 262); for Presentation score CLL: chronic lymphocytic leukemia (N = 17) vs panel of normal tissues (N = 262); for Presentation score OSCAR: esophageal cancer, including cancer of the gastric-esophageal junction (N = 17) vs panel of normal tissues (N = 262); for Presentation score MEL: melanoma (N = 7) vs panel of normal tissues (N = 262); for Presentation score CRC: colorectal cancer (N = 28) vs panel of normal tissues (N = 262); for Presentation score GBC_CCC: gallbladder adenocarcinoma and cholangiocarcinoma (N = 6) vs panel of normal tissues (N = 262); for Presentation score UEC: uterine cancer (N = 15) vs panel of normal tissues (N = 262); for Presentation score RCC: renal cell carcinoma (N = 20) vs panel of normal tissues (N = 262); for Presentation score BRCA: breast cancer (N = 17) vs panel of normal tissues (N = 262); for Presentation score GC: gastric cancer (N = 29) vs panel of normal tissues (N = 262); for Presentation score SCLC: small cell lung cancer (N = 19) vs panel of normal tissues (N = 262). More on the design: species or system human; key to Presentation score NHL / Presentation score CLL / Presentation score BRCA / Presentation score AML / Presentation score GB / Presentation score NSCLC / Presentation score GBC_CCC / Presentation score UEC / Presentation score MEL / Presentation score OSCAR / Presentation score GC / Presentation score UBC / Presentation score OC / Presentation score RCC / Presentation score CRC / Presentation score PCA / Presentation score HCC / Presentation score PC / Presentation score SCLC: specifically presented on tumors (++++); very highly over-presented on tumors compared to a panel of normal tissues (+++); highly over-presented on tumors compared to a panel of normal tissues (++); over-presented on tumors compared to a panel of normal tissues (+).

The mark [1] stands for this setting: Table 13A, cancer entities on which the peptide was found presented.
The mark [2] stands for this setting: Table 13B, presentation on additional cancer entities.

For the substance “1 (LLYPEPWSV; listed as Homo sapiens) [compound 1]”, under “HLA-A*02 peptides”, the “Presentation score GB” value was “++++”, the “Presentation score NSCLC” value is recorded as “++++” and the “Presentation score OC” value is given as “++++”. In addition, the “Peptide Presentation on cancer entities” value under setting [1] is on record as “GB, NSCLC, OC”. In addition, the “Peptide Presentation on cancer entities” value under setting [2] is “SCLC, UEC, HNSCC”.
In the case of “3 (KLEENGDLYL; listed as Homo sapiens) [compound 3]”, where the note is “HLA-A*02 peptides”, the “Presentation score NHL” value is reported as “+” and the “Presentation score UBC” value was “+++”. The “Peptide Presentation on cancer entities” value under setting [1] is listed as “NSCLC, OC, SCLC, UBC, BRCA, GBC_CCC, MEL, NHL”. Further, the “Peptide Presentation on cancer entities” value under setting [2] was “HCC, UEC, AML, HNSCC”.
Take “4 (KLMPGTYTL; listed as Homo sapiens) [compound 4]”: the “Peptide Presentation on cancer entities” value under setting [1] is given as “NSCLC, OC, UEC, AML, NHL” and the “Peptide Presentation on cancer entities” value under setting [2] is given as “MEL, HNSCC”.
Consider “5 (GIVAHIQEV; listed as Homo sapiens) [compound 5]”, for which, where the note is “HLA-A*02 peptides”, the “Presentation score AML” value is “++”, the “Presentation score CLL” value was “+” and the “Presentation score OC” value was “+”. Besides, under setting [1], the “Peptide Presentation on cancer entities” value is “GC, NSCLC, PCA, CLL, OSCAR, OC, CRC, AML, NHL”. In addition, the “Peptide Presentation on cancer entities” value under setting [2] is reported as “UEC, MEL”.
“6 (ALFDSLRHV; listed as Homo sapiens) [compound 6]”: the “Presentation score GB” value (HLA-A*02 peptides) is reported as “++++”.
With “7 (ILDHEVPSL; listed as Homo sapiens) [compound 7]”, for the setting “HLA-A*02 peptides”, the “Presentation score AML” value is listed as “++”, the “Presentation score CLL” value was “+”, the “Presentation score OSCAR” value was “+++” and the “Presentation score MEL” value was “+”. For the same substance, the “Peptide Presentation on cancer entities” value under setting [2] is reported as “HNSCC”.
On to “9 (FLVDGSYSI; listed as Homo sapiens) [compound 9]”, for which, under “HLA-A*02 peptides”, the “Presentation score CRC” value is “++++”, the “Presentation score OSCAR” value is on record as “++++”, the “Presentation score GBC_CCC” value is on record as “++++” and the “Presentation score NSCLC” value is “++++”. Moreover, under setting [1], the “Peptide Presentation on cancer entities” value is given as “NSCLC, OSCAR, GBC_CCC, CRC”.
Regarding “10 (GIAGSLKTV; listed as Homo sapiens) [compound 10]”, under “HLA-A*02 peptides”, the “Presentation score AML” value is reported as “++”, the “Presentation score NSCLC” value is given as “+” and the “Presentation score UEC” value is “+”. Besides, the “Peptide Presentation on cancer entities” value under setting [1] is given as “NSCLC, OSCAR, UBC, UEC, CRC, AML”. Further, the “Peptide Presentation on cancer entities” value under setting [2] is “SCLC, MEL, AML”.
For “12 (GLLPLLHRA; listed as Homo sapiens) [compound 12]”, for the setting “HLA-A*02 peptides”, the “Presentation score GB” value is listed as “++++”, the “Presentation score NSCLC” value is reported as “++++”, the “Presentation score RCC” value was “++++” and the “Presentation score UEC” value is recorded as “++++”. Further, under setting [1], the “Peptide Presentation on cancer entities” value is “GB, NSCLC, UEC, RCC”. Besides, under setting [2], the “Peptide Presentation on cancer entities” value is on record as “MEL, RCC”.
On to “13 (ALMAMLVYV; listed as Homo sapiens) [compound 13]”, for which, under “FIG. 1, A*02 positive samples, only samples with presentation shown”, the “number of cancer tissues where the peptide was found to be presented” value was 17. In addition, for the setting “HLA-A*02 peptides”, the “Presentation score BRCA” value is reported as “++++”, the “Presentation score GBC_CCC” value is given as “++++”, the “Presentation score GC” value was “++++” and the “Presentation score NSCLC” value is reported as “++++”. Besides, under “HLA-A*02 peptides”, the “Presentation score OC” value was “++++” and the “Presentation score SCLC” value is on record as “++++”. The “Peptide Presentation on cancer entities” value under setting [1] is “GC, NSCLC, OC, SCLC, BRCA, GBC_CCC”. Further, under setting [2], the “Peptide Presentation on cancer entities” value was “GBC_CCC, MEL, NHL, HNSCC”.
Consider “18 (ILLDLTDNRL; listed as Homo sapiens) [compound 18]”, for which, where the note is “HLA-A*02 peptides”, the “Presentation score BRCA” value is “++++”, the “Presentation score CRC” value was “++++”, the “Presentation score OSCAR” value is given as “++++” and the “Presentation score MEL” value is “++++”. Also, for the setting “HLA-A*02 peptides”, the “Presentation score NSCLC” value is “++++”, the “Presentation score RCC” value is reported as “++++” and the “Presentation score UBC” value is “++++”. The “Peptide Presentation on cancer entities” value under setting [1] was “NSCLC, OSCAR, UBC, BRCA, MEL, RCC, CRC”. The “Peptide Presentation on cancer entities” value under setting [2] was “AML, HNSCC”.
Consider “20 (GLSQITNQL; listed as Homo sapiens) [compound 20]”, for which, for the setting “HLA-A*02 peptides”, the “Presentation score CLL” value was “++++”, the “Presentation score NHL” value was “++++” and the “Presentation score UBC” value is given as “++++”. Besides, the “Peptide Presentation on cancer entities” value under setting [1] is recorded as “CLL, UBC, NHL”. For the same substance, the “Peptide Presentation on cancer entities” value under setting [2] is listed as “MEL, AML”.
With “22 (FVDPNTQEKV; listed as Homo sapiens) [compound 22]”, under “HLA-A*02 peptides”, the “Presentation score BRCA” value was “++++”, the “Presentation score OSCAR” value was “++++”, the “Presentation score GC” value is reported as “++++” and the “Presentation score OC” value is given as “++++”. For the same substance, for the setting “HLA-A*02 peptides”, the “Presentation score UBC” value is “++++”. Besides, the “Presentation score HCC” value (HLA-A*02 peptides, hepatocellular carcinoma (N = 16) vs panel of normal tissues (N = 262)) is on record as “++++”. For the same substance, the “Peptide Presentation on cancer entities” value under setting [2] is given as “HNSCC”.
As for “26 (ALQEELTEL; listed as Homo sapiens) [compound 26]”, under “HLA-A*02 peptides”, the “Presentation score AML” value was “++++”, the “Presentation score BRCA” value was “++++”, the “Presentation score GBC_CCC” value was “++++” and the “Presentation score MEL” value is recorded as “++++”. For the same substance, under “HLA-A*02 peptides”, the “Presentation score NHL” value is “++++”. In addition, under setting [1], the “Peptide Presentation on cancer entities” value was “BRCA, GBC_CCC, MEL, AML, NHL”. For the same substance, the “Peptide Presentation on cancer entities” value under setting [2] is “NSCLC, CRC, HNSCC”.
Regarding “27 (RLMEENWNA; listed as Homo sapiens) [compound 27]”, where the note is “HLA-A*02 peptides”, the “Presentation score CRC” value is listed as “++++”, the “Presentation score OSCAR” value is given as “++++”, the “Presentation score NSCLC” value was “++++” and the “Presentation score OC” value was “++++”. For the same substance, the “Presentation score UEC” value (HLA-A*02 peptides) was “++++”. The “Peptide Presentation on cancer entities” value under setting [1] was “NSCLC, OSCAR, OC, UEC, CRC”.
For “28 (SLPNGKPVSV; listed as Homo sapiens) [compound 28]”, under “HLA-A*02 peptides”, the “Presentation score NHL” value is given as “++++”, the “Presentation score NSCLC” value is listed as “++++”, the “Presentation score OC” value is given as “++++” and the “Presentation score UBC” value is listed as “++++”. Further, the “Peptide Presentation on cancer entities” value under setting [1] is listed as “NSCLC, OC, UBC, NHL”. Besides, under setting [2], the “Peptide Presentation on cancer entities” value was “OSCAR, SCLC, HNSCC”.
As for “29 (YLLDPSITL; listed as Homo sapiens) [compound 29]”, for the setting “HLA-A*02 peptides”, the “Presentation score AML” value is recorded as “+++”, the “Presentation score BRCA” value was “+++”, the “Presentation score CLL” value is reported as “+++” and the “Presentation score GBC_CCC” value was “+++”. Under “HLA-A*02 peptides”, the “Presentation score NHL” value is recorded as “+++” and the “Presentation score NSCLC” value is recorded as “+++”. Also, the “Peptide Presentation on cancer entities” value under setting [1] is on record as “NSCLC, CLL, BRCA, GBC_CCC, AML, NHL”. In addition, under setting [2], the “Peptide Presentation on cancer entities” value is on record as “HCC, SCLC, MEL, HNSCC”.
For “31 (TITETTVEV; listed as Homo sapiens) [compound 31]”, the “Presentation score GB” value (HLA-A*02 peptides) was “++++”.
As for “35 (FLLPFSTVYL; listed as Homo sapiens) [compound 35]”, for the setting “HLA-A*02 peptides”, the “Presentation score AML” value is reported as “+”, the “Presentation score CLL” value is listed as “++”, the “Presentation score NSCLC” value is “+” and the “Presentation score OC” value is recorded as “+++”. For the same substance, under setting [1], the “Peptide Presentation on cancer entities” value was “NSCLC, CLL, OC, AML, NHL”. The “Peptide Presentation on cancer entities” value under setting [2] was “HNSCC”.
On to “36 (SLADTNSLAVV; listed as Homo sapiens) [compound 36]”, for which, where the note is “HLA-A*02 peptides”, the “Presentation score MEL” value was “++++” and the “Presentation score SCLC” value is recorded as “++++”. Besides, the “Peptide Presentation on cancer entities” value under setting [1] was “SCLC, MEL”.
As to “37 (ILAPFSVDL; listed as Homo sapiens) [compound 37]”, the “Presentation score AML” value (HLA-A*02 peptides) is “++++”. The “Peptide Presentation on cancer entities” value under setting [1] is recorded as “AML”.
Regarding “38 (FLGPRIIGL; listed as Homo sapiens) [compound 38]”, for the setting “HLA-A*02 peptides”, the “Presentation score AML” value is listed as “++++”, the “Presentation score CLL” value is listed as “++++” and the “Presentation score NHL” value was “++++”. The “Peptide Presentation on cancer entities” value under setting [1] is “CLL, AML, NHL”. Moreover, the “Peptide Presentation on cancer entities” value under setting [2] is listed as “CRC”.
Regarding “42 (LLDSVSRL; listed as Homo sapiens) [compound 42]”, where the note is “HLA-A*02 peptides”, the “Presentation score CRC” value is “++++”, the “Presentation score GBC_CCC” value is reported as “++++” and the “Presentation score NSCLC” value is listed as “++++”. Under setting [1], the “Peptide Presentation on cancer entities” value is “NSCLC, GBC_CCC, CRC”.
